# Reference: the supplement of paper PMC10849652
# Amino acid sequences for entries named in this document (tags omitted). A change or cut given only in a name is not applied to a line headed by its entry.
# UniProt O75061: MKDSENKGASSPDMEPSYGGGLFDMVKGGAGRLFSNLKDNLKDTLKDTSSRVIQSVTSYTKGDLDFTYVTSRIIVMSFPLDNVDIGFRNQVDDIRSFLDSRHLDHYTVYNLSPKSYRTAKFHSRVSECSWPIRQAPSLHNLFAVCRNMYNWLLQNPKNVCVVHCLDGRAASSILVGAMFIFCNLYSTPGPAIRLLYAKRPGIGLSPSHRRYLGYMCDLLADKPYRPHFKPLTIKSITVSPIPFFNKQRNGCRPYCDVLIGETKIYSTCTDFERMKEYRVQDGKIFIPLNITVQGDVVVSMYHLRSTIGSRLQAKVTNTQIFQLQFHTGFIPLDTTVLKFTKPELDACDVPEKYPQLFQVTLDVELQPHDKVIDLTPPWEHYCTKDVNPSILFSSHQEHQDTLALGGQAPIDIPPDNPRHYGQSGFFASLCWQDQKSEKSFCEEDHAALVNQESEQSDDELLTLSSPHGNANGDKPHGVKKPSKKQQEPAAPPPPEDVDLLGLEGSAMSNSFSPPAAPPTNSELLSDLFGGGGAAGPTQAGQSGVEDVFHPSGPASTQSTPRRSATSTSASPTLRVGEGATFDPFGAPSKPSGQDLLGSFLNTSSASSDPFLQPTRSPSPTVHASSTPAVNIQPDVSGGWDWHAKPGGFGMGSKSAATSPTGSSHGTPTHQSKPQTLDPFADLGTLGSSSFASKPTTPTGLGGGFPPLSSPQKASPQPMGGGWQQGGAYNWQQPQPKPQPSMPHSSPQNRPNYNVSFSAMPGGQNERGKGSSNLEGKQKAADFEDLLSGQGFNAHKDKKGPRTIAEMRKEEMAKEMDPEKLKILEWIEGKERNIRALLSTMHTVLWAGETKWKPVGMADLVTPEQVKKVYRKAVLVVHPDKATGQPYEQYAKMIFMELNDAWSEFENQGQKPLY
# UniProt Q96EY1: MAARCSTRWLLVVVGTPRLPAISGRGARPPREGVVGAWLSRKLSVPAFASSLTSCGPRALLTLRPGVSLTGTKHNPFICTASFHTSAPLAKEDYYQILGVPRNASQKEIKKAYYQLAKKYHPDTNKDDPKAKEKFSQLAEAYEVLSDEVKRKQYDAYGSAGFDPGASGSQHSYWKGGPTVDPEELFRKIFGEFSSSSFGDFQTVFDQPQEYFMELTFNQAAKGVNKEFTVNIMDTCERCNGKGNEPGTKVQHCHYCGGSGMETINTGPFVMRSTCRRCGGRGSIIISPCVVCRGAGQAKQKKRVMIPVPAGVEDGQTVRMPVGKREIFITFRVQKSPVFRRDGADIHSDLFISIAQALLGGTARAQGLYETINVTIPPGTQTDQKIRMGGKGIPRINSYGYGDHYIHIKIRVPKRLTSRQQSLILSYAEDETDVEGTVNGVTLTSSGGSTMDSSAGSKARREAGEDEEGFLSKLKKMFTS
# UniProt Q7Z478: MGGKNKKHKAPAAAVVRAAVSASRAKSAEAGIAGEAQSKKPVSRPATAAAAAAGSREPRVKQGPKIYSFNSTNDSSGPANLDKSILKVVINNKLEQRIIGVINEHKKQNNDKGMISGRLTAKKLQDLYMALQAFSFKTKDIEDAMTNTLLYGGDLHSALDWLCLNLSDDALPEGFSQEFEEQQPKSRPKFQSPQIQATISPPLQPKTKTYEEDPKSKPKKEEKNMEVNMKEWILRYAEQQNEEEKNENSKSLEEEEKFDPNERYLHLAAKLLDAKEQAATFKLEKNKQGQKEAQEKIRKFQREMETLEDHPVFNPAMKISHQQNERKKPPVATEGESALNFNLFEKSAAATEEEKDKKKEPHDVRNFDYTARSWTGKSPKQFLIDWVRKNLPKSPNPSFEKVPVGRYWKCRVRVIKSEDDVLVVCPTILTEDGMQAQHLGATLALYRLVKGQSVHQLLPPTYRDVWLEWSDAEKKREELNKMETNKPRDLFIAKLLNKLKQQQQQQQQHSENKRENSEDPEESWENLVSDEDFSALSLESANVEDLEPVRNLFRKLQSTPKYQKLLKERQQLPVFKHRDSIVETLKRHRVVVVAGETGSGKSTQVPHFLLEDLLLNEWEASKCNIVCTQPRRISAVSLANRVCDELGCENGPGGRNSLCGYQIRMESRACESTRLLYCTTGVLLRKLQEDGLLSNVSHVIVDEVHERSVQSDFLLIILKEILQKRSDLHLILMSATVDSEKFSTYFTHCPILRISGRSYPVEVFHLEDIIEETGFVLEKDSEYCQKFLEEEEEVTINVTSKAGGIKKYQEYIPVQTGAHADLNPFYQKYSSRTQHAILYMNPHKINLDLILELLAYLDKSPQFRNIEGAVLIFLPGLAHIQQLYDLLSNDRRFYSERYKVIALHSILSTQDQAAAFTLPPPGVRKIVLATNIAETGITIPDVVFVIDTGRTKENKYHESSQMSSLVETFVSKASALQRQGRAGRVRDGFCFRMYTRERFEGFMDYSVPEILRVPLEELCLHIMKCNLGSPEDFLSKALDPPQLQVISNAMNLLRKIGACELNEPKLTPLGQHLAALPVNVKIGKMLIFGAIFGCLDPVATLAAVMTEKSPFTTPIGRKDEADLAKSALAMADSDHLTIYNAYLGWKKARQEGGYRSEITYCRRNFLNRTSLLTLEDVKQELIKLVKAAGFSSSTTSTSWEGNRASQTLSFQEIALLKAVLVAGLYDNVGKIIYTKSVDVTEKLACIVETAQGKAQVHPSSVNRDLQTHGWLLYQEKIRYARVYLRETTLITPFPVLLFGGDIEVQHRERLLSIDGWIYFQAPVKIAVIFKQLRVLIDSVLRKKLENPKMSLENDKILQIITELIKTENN
# UniProt P36957: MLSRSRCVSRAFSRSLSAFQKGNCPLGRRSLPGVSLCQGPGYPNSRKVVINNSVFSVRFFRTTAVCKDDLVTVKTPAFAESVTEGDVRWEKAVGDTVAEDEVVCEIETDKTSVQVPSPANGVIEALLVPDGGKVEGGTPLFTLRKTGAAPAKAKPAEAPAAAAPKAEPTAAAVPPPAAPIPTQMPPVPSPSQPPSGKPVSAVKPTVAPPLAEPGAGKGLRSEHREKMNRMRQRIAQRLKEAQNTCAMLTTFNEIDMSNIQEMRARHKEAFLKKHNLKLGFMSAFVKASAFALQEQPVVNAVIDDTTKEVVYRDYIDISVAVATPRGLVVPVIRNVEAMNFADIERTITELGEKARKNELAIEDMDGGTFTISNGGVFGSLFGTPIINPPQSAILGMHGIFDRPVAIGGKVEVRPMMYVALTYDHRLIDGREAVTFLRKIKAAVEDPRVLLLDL
# UniProt Q14689: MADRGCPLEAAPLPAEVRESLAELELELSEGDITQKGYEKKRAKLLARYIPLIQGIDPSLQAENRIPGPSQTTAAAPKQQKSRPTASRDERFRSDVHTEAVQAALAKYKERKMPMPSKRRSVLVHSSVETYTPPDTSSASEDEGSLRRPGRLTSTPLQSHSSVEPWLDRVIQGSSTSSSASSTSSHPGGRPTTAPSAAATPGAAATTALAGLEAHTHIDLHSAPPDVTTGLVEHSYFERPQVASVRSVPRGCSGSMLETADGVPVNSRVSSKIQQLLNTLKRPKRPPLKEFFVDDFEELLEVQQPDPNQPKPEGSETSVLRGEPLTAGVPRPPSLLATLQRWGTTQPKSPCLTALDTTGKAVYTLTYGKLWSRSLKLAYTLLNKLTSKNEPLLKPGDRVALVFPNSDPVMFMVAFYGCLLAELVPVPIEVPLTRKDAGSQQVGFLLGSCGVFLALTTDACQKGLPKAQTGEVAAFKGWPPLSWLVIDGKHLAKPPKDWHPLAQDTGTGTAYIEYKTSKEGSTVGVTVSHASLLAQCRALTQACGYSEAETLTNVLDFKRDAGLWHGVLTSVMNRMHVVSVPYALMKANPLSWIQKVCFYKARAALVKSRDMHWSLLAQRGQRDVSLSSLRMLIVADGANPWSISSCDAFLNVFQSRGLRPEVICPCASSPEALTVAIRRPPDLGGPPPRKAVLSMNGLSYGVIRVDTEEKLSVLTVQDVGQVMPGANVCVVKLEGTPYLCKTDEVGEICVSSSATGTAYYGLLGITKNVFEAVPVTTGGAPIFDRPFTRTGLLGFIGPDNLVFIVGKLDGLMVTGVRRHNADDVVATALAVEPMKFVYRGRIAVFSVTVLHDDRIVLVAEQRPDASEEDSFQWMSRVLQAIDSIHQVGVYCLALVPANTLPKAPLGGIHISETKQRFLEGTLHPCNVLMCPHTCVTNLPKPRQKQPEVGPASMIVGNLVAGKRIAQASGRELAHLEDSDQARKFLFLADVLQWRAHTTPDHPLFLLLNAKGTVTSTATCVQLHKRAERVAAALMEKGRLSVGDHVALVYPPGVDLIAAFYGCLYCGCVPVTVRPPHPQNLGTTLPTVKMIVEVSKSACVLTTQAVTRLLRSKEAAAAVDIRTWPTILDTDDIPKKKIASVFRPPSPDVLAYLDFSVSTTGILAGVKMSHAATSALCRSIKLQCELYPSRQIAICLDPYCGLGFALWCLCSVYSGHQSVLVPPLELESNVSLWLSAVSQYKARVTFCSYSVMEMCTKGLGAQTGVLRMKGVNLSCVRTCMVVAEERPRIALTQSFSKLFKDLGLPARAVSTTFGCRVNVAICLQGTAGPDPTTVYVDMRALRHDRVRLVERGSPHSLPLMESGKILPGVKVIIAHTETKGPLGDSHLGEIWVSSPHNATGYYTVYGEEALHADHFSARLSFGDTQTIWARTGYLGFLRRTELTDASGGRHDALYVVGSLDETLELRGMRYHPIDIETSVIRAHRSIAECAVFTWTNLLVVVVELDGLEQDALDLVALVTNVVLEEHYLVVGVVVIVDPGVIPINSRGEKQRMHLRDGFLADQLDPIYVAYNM
# UniProt Q8IX18: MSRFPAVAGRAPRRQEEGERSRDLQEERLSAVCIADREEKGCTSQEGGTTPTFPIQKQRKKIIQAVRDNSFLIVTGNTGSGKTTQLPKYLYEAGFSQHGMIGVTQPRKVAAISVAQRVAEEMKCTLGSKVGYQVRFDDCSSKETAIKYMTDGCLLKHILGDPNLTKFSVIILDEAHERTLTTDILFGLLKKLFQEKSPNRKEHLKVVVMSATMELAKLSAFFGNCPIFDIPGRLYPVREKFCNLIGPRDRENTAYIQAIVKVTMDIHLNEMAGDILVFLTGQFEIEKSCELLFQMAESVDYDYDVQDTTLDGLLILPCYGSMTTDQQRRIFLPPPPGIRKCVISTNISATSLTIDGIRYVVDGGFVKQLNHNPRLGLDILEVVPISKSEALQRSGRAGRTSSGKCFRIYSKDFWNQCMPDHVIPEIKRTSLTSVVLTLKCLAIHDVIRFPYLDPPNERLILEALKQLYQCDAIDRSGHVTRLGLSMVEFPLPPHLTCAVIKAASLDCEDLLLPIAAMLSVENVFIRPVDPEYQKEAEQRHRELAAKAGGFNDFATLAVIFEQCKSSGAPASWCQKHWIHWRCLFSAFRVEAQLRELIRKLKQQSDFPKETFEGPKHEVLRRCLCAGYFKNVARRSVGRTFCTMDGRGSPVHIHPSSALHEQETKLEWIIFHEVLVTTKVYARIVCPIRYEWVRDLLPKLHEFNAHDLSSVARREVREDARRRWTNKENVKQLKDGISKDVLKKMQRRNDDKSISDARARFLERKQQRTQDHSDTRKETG
# UniProt Q8WYQ5: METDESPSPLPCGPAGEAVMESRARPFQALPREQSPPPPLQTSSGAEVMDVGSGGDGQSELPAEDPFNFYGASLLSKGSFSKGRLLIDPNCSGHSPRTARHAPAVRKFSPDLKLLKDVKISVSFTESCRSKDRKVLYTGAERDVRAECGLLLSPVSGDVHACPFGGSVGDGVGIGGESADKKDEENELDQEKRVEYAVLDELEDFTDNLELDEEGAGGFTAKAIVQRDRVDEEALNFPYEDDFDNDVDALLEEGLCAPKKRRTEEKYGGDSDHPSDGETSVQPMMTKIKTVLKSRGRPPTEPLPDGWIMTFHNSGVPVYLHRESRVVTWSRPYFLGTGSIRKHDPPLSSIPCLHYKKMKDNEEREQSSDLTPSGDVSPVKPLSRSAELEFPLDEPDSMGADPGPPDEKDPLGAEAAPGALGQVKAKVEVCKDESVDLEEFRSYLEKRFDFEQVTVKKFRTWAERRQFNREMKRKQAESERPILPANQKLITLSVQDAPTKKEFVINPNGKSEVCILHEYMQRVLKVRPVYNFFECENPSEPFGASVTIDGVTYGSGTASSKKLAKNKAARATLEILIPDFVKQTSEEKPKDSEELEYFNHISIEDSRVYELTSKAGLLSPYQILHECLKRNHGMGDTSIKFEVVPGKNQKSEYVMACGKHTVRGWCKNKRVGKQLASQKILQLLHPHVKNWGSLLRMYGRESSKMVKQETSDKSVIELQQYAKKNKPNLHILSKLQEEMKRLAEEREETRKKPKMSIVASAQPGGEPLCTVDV
# The other results are listed elsewhere or left out.
# Columns and labels:
# Experiment in all cases: log2 fold change, soluble protein after heating vs DMSO (PISA); higher = thermal stabilisation; K562 lysate, 10 uM; active = over 0.2 and 3.5 SD of the protein, either way, in both replicates (recomputed)
# lapatinib = compound: CS(=O)(=O)CCNCc1ccc(-c2ccc3ncnc(Nc4ccc(OCc5cccc(F)c5)c(Cl)c4)c3c2)o1 [lapatinib]
# Summary of the method: (§1)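 Dounce homogenisation of K562 pellets in PBS pH 7.4 with 1 mM MgCl2 produced a crude extract, used at 1 mg/mL protein. Exposure to 10 μM compound lasted 30 min, and aliquots were then heated for 3 min across 48°C-58°C, pooled and brought to 0.5% NP-40 at 4°C. The supernatant after 21,000xg for 90 min was quantified by TMTpro 16plex LC-MS/MS with channel sums equalised. Duplicate values are given as log-two fold change in thermal stability relative to solvent controls.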
# pictilisib = compound: CS(=O)(=O)N1CCN(Cc2cc3nc(-c4cccc5[nH]ncc45)nc(N4CCOCC4)c3s2)CC1 [pictilisib]
# Summary of the method: as §1
# crizotinib = compound: C[C@@H](Oc1cc(-c2cnn(C3CCNCC3)c2)cnc1N)c1c(Cl)ccc(F)c1Cl [crizotinib]
# Summary of the method: as §1
# [1] = compound: C[C@H](C1=CC=C(C=C1)C(=O)NC2=C3C=CNC3=NC=C2)N
# Summary of the method: as §1
# duvelisib = compound: C[C@H](Nc1ncnc2nc[nH]c12)c1cc2cccc(Cl)c2c(=O)n1-c1ccccc1 [duvelisib]
# Summary of the method: as §1
# gandotinib = compound: Cc1cc(Nc2cc(CN3CCOCC3)c3nc(C)c(Cc4ccc(Cl)cc4F)n3n2)n[nH]1 [gandotinib]
# Summary of the method: as §1
# tozasertib = compound: Cc1cc(Nc2cc(N3CCN(C)CC3)nc(Sc3ccc(NC(=O)C4CC4)cc3)n2)n[nH]1 [tozasertib]
# Summary of the method: as §1
# doramapimod = compound: Cc1ccc(-n2nc(C(C)(C)C)cc2NC(=O)Nc2ccc(OCCN3CCOCC3)c3ccccc23)cc1 [doramapimod]
# Summary of the method: as §1
# bafetinib = compound: Cc1ccc(NC(=O)c2ccc(CN3CC[C@H](N(C)C)C3)c(C(F)(F)F)c2)cc1Nc1nccc(-c2cncnc2)n1 [bafetinib]
# Summary of the method: as §1
# [2] = compound: Cc1cccc(CC(=O)N2CCc3c2ccc(-c2cn(C)c4ncnc(N)c24)c3F)n1
# Summary of the method: as §1
# nilotinib = compound: Cc1cn(-c2cc(NC(=O)c3ccc(C)c(Nc4nccc(-c5cccnc5)n4)c3)cc(C(F)(F)F)c2)cn1 [nilotinib]
# Summary of the method: as §1
# [3] = compound: Cc1nc(Nc2n[nH]c3c2CN(C(=O)N[C@H](CN(C)C)c2ccccc2)C3(C)C)c2sccc2n1
# Summary of the method: as §1
# dasatinib = compound: Cc1nc(Nc2ncc(C(=O)Nc3c(C)cccc3Cl)s2)cc(N2CCN(CCO)CC2)n1 [dasatinib]
# Summary of the method: as §1
# [4] = compound: Cc1ncc(-c2ccnc(Nc3ccc(S(C)(=O)=O)cc3)n2)n1C(C)C
# Summary of the method: as §1
# [5] = compound: Cn1cc(-c2ccc3c(c2)CCN3C(=O)Cc2cccc(C(F)(F)F)c2)c2c(N)ncnc21
# Summary of the method: as §1
# quisinostat = compound: Cn1cc(CNCC2CCN(c3ncc(C(=O)NO)cn3)CC2)c2ccccc21 [quisinostat]
# Summary of the method: as §1
# tipifarnib = compound: Cn1cncc1[C@@](N)(c1ccc(Cl)cc1)c1ccc2c(c1)c(-c1cccc(Cl)c1)cc(=O)n2C [tipifarnib]
# Summary of the method: as §1
# [6] = compound: NC(=O)Nc1cc(-c2cccc(F)c2)sc1C(=O)N[C@H]1CCCNC1
# Summary of the method: as §1
# [7] = compound: NC(=O)c1cnc(N[C@@H]2CCCC[C@@H]2N)nc1Nc1cccc(-n2nccn2)c1
# Summary of the method: as §1
# [8] = compound: NC1(c2ccc(-c3nc4ccn5c(=O)[nH]nc5c4cc3-c3ccccc3)cc2)CCC1
# Summary of the method: as §1
Target,log2 fold change (lapatinib),log2 fold change (pictilisib),log2 fold change (crizotinib),log2 fold change [1],log2 fold change (duvelisib),log2 fold change (gandotinib),log2 fold change (tozasertib),log2 fold change (doramapimod),log2 fold change (bafetinib),log2 fold change [2],log2 fold change (nilotinib),log2 fold change [3],log2 fold change (dasatinib),log2 fold change [4],log2 fold change [5],log2 fold change (quisinostat),log2 fold change (tipifarnib),log2 fold change [6],log2 fold change [7],log2 fold change [8]
DNAH10 (UniProt Q8IVF4),inactive: -0.075,inactive: 0.066,inactive: -0.136,active: -0.553,inactive: 0.044,inactive: 0.172,inactive: -0.024,inactive: 0.076,inactive: -0.08,inactive: 0.196,inactive: 0.017,inactive: 0.014,inactive: -0.026,inactive: -0.024,inactive: -0.026,inactive: -0.251,inactive: 0.025,inactive: 0.012,inactive: -0.017,inactive: -0.072
DNAJC6 isoform 2 (UniProt O75061),inactive: 0.018,inactive: 0.016,inactive: 0.054,inactive: -0.046,inactive: -0.027,inactive: 0.137,inactive: -0.043,inactive: 0.048,inactive: -0.032,inactive: 0.04,inactive: 0.001,inactive: 0.005,inactive: 0.024,inactive: 0.015,inactive: -0.024,inactive: -0.02,inactive: -0.007,inactive: 0.008,inactive: -0.047,inactive: -0.011
DNAJA3 (UniProt Q96EY1),inactive: 0.004,inactive: 0.078,inactive: -0.055,inactive: 0.035,inactive: 0.02,inactive: -0.005,inactive: -0.029,inactive: -0.047,inactive: -0.011,inactive: 0.057,inactive: -0.005,inactive: -0.002,inactive: -0.012,inactive: -0.077,inactive: 0.051,inactive: -0.017,inactive: -0.05,inactive: 0.033,inactive: 0.064,inactive: -0.018
DHX29 (UniProt Q7Z478),inactive: -0.018,inactive: 0.016,inactive: 0.005,inactive: -0.033,inactive: -0.008,inactive: -0.041,inactive: 0.016,inactive: 0.028,inactive: -0.064,inactive: 0.022,inactive: -0.011,inactive: 0.027,inactive: 0.003,inactive: -0.01,inactive: 0.008,inactive: 0.019,inactive: 0.02,inactive: -0.014,inactive: 0.013,inactive: -0.032
DLST (UniProt P36957),inactive: -0.012,inactive: 0,inactive: 0.007,inactive: -0.019,inactive: 0.008,inactive: 0.022,inactive: 0.04,inactive: 0.02,inactive: 0.025,inactive: 0.019,inactive: 0.015,inactive: 0.021,inactive: -0.021,inactive: -0.01,inactive: 0.037,inactive: -0.006,inactive: 0.019,inactive: -0.023,inactive: 0.014,inactive: 0.017
DIP2A (UniProt Q14689),inactive: 0.008,inactive: -0.007,inactive: 0.002,inactive: -0.028,inactive: 0.049,inactive: 0.034,inactive: 0.031,inactive: 0.057,inactive: -0.044,inactive: 0.016,inactive: -0.009,inactive: -0.062,inactive: -0.14,inactive: 0.016,inactive: 0.135,inactive: -0.039,inactive: 0.013,inactive: -0.028,inactive: 0.029,inactive: -0.027
DHX40 (UniProt Q8IX18),inactive: -0.051,inactive: -0.038,inactive: 0.029,inactive: -0.01,inactive: 0.007,inactive: 0.009,inactive: 0.023,inactive: 0,inactive: -0.045,inactive: 0.081,inactive: -0.035,inactive: 0.034,inactive: 0.019,inactive: 0.009,inactive: 0.021,inactive: 0.012,inactive: 0.046,inactive: 0.021,inactive: 0.008,inactive: -0.007
DGCR8 (UniProt Q8WYQ5),inactive: -0.023,inactive: -0.048,inactive: 0.039,inactive: -0.056,inactive: -0.014,inactive: -0.032,inactive: -0.012,inactive: 0.04,inactive: -0.009,inactive: 0.044,inactive: -0.01,inactive: -0.002,inactive: -0.061,inactive: -0.029,inactive: -0.02,inactive: -0.007,inactive: 0.03,inactive: -0.032,inactive: -0.048,inactive: 0.003
